# Test results: publication PMC7819943, “Rice protein-binding microarrays: a tool to detect cis-acting elements near promoter regions in rice”
# Amino acid sequences for entries named in this document (tags omitted).
# UniProt Q0JBA9, entry or part of it: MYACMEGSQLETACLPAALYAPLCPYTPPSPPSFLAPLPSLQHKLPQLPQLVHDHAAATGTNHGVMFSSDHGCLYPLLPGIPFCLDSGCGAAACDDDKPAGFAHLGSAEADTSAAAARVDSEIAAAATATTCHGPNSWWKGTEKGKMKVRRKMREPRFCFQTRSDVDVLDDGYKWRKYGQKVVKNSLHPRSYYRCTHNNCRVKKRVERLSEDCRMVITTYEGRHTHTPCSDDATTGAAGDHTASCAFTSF
# Some of the results follow.
# Biological target: OsWRKY34 (Oryza sativa, UniProt Q0JBA9 1-250)
# Test: protein-binding microarray (RPBM); PBS, 2% BSA, 51.3 ng/ul salmon testes DNA, 50 uM zinc acetate, 200 nM TF, 25 C, 1 h; high values mean tight binding
# Conditions: protein: recombinant; tags: N-terminal polyhistidine and DsRed monomer fusion (pET32a); label: CyDye5-dUTP incorporated in the synthesized complementary strand; 3' TTTTT single-stranded linker to array surface; dsDNA, one strand shown
# Summary of the method: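 Binding signal here means per-feature fluorescence intensity in arbitrary units. The values were read on an Axon 4000B scanner after a custom Agilent array, double-stranded by primer extension with Cy5-dUTP, was incubated with 200 nM protein at 25 °C for 1 h in PBS with 2% BSA, salmon testes DNA and 50 µM zinc acetate, then washed. The proteins were transcription factors with an N-terminal polyhistidine tag and DsRed, expressed in E. coli BL21-CodonPlus and purified on Ni–NTA.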
row,Sequence,binding signal
1,CGGGTCATTCTTGGGTCGTGGGAGTCGGATTCGGGTTTCTCGGAGTCACCTAGTGCAG,9320 fluorescence intensity (a.u.)
2,TGAAGGTGGGCTGCTCTAGTTGGGCTGGGCATTTTGTCGACGGAGTCACCTAGTGCAG,9000 fluorescence intensity (a.u.)
3,GAACTTTGGGTATCTCAATGGATTCGGGGTGCGGGTGCGACGGAGTCACCTAGTGCAG,10900 fluorescence intensity (a.u.)
4,TGCGACGACGTTTCTACTTCTAGATGCCCATATCCACTAGCGGAGTCACCTAGTGCAG,8210 fluorescence intensity (a.u.)
5,ACGGAGCAAAATCTCTCTCTGCCTTGCGGCTTGCGTTCCGCGGAGTCACCTAGTGCAG,8080 fluorescence intensity (a.u.)
6,ATATATATATATATATATATATAGAGAGAGAGAGAGAGACCGGAGTCACCTAGTGCAG,8980 fluorescence intensity (a.u.)
7,GACGCCGTTGACTTTTTGACCAACGTTTGACCTTTCGTCTCGGAGTCACCTAGTGCAG,31400 fluorescence intensity (a.u.)
8,CATCGCTTGTCATACACTATCCGCATTTACCTCTCACATGCGGAGTCACCTAGTGCAG,9810 fluorescence intensity (a.u.)
9,GGTCTGGTTCTTCTTGATGCGAGGCTAGCTGACGTTTTTTCGGAGTCACCTAGTGCAG,17200 fluorescence intensity (a.u.)
10,CTCTCTCTCTCTCTCTCTCTCTCTCTCCAACGCGCGCGCGCGGAGTCACCTAGTGCAG,8700 fluorescence intensity (a.u.)
11,GTTGGCCGATACATGTACTTATATATATATATATATATATCGGAGTCACCTAGTGCAG,8860 fluorescence intensity (a.u.)
12,CTCAAACCCTAGCCGTCCCAGCCTCGGCTTGACCAATGCCCGGAGTCACCTAGTGCAG,11500 fluorescence intensity (a.u.)
13,GTTGGTTTTCCTTAATTTACCGTGCTTTTGTAAATATTTTCGGAGTCACCTAGTGCAG,10400 fluorescence intensity (a.u.)
14,GTCATTTTAATTGCAAATGCTTTTATATGTTGTTTCTTTCCGGAGTCACCTAGTGCAG,9620 fluorescence intensity (a.u.)
15,GCCATGTGACTAGACCGAGCTAGCTCGCTCGATCGATCTCCGGAGTCACCTAGTGCAG,8510 fluorescence intensity (a.u.)
16,TCCTCCTCTCTCTCTCTCACTCTTGTCTCTATCGGCGGGGCGGAGTCACCTAGTGCAG,12500 fluorescence intensity (a.u.)
17,ACAATCGCTTCGCTTTTCGCTCTACTCGTACGATCGTTCCCGGAGTCACCTAGTGCAG,10300 fluorescence intensity (a.u.)
18,GCGAAATATCTTCTTATTCCTTCTAGAAATTTCTTTCACACGGAGTCACCTAGTGCAG,10000 fluorescence intensity (a.u.)
19,CTCTTATTCTTTCAGCCTGTCCGTCGTCTATCTGTCTGCACGGAGTCACCTAGTGCAG,9290 fluorescence intensity (a.u.)
20,TTCATCACTCGATCGATCTCCTCACTTCACACACAAGCTCCGGAGTCACCTAGTGCAG,9050 fluorescence intensity (a.u.)
21,TATTGTACCTGCTCTGAGCAGCTAGCTCCCGTACCACCATCGGAGTCACCTAGTGCAG,8670 fluorescence intensity (a.u.)

row,Sequence,binding signal
1,CCCATTCTTTCACTTTTGACCTTTTTTTATCATTTTGTTTCGGAGTCACCTAGTGCAG,9510 fluorescence intensity (a.u.)
2,AGTCTTGCTATTTATGGGCATTTTTCTGACATCCTAGCATCGGAGTCACCTAGTGCAG,9120 fluorescence intensity (a.u.)
3,TGCACTCACGTTTAGATCTGGTCCTGTACTGTTGAATTCCCGGAGTCACCTAGTGCAG,9890 fluorescence intensity (a.u.)
4,ACTTTTTCTTCAAACTTTCAAGTTTTACATCATATCAAAACGGAGTCACCTAGTGCAG,8740 fluorescence intensity (a.u.)
5,TCTGTTTATATTTCATGTCACTTTTCTTGTCCCTCGAATGCGGAGTCACCTAGTGCAG,9150 fluorescence intensity (a.u.)
6,TTCTTTTGTTGTCCAATTCATTTCCATTTCTTGCCGTTTTCGGAGTCACCTAGTGCAG,8320 fluorescence intensity (a.u.)
7,GACAACGTTATTTAGGCTGTGTTCGTTTGTGTGAGATAGGCGGAGTCACCTAGTGCAG,9900 fluorescence intensity (a.u.)
8,CTCCCCAATGTTGTGTTGGGACTTGGGACAGTGGGCTTTTCGGAGTCACCTAGTGCAG,8310 fluorescence intensity (a.u.)
9,GGTTTTGCCATAACCCACGTTCGCATTCACCCACATACATCGGAGTCACCTAGTGCAG,8410 fluorescence intensity (a.u.)
10,TCCACCCGTGCAGCCGCGCCGGCGACAGCCTCGATTATTCCGGAGTCACCTAGTGCAG,9310 fluorescence intensity (a.u.)
11,CCGTCTATTCTACGCTGTTAAATACATTGTTCGTCCTATTCGGAGTCACCTAGTGCAG,9370 fluorescence intensity (a.u.)
12,GTTTTTTTTAATACTCCTTTTTTTCCCTTTCATTTCATTTCGGAGTCACCTAGTGCAG,8700 fluorescence intensity (a.u.)
13,ATCGCCTCCTACCGCGCGTCCACCGGCCGACTGCCACTCGCGGAGTCACCTAGTGCAG,9120 fluorescence intensity (a.u.)
14,GGGTCGCAGGAAAGCTTCGGCTGGGTGGATGGGGATCACACGGAGTCACCTAGTGCAG,9370 fluorescence intensity (a.u.)
15,GGAAACTATTCTAATCTGTCGAGGGGATGTTCTCTCGTTTCGGAGTCACCTAGTGCAG,10500 fluorescence intensity (a.u.)
16,ACTCACCTTATTAGTCATCTTCCTTAGCCTTAAGCGTAAACGGAGTCACCTAGTGCAG,10300 fluorescence intensity (a.u.)
17,CGCTTACAGTCCACTCTCCACTGCGCCCGCATGAGTCATGCGGAGTCACCTAGTGCAG,8880 fluorescence intensity (a.u.)
18,TCTCCCATCCCATCCCATGCATCACTAGCGGATTTGTGGACGGAGTCACCTAGTGCAG,8940 fluorescence intensity (a.u.)
19,CCTTCACACCATATTGTTTCTTCACTTGGAGGGTTACCAACGGAGTCACCTAGTGCAG,15100 fluorescence intensity (a.u.)
20,TCTGCACTGGCCACCACTTTCCTCTGATGCACATGCTGACCGGAGTCACCTAGTGCAG,10400 fluorescence intensity (a.u.)
21,GTTTGCGTTTGTGTTCGTTTGGTCGCCGGCGGAAGCGATGCGGAGTCACCTAGTGCAG,8920 fluorescence intensity (a.u.)

# 2 records drawn at random from the list so far, as already listed:
row,Sequence,binding signal
13,ATCGCCTCCTACCGCGCGTCCACCGGCCGACTGCCACTCGCGGAGTCACCTAGTGCAG,9120 fluorescence intensity (a.u.)
9,GGTTTTGCCATAACCCACGTTCGCATTCACCCACATACATCGGAGTCACCTAGTGCAG,8410 fluorescence intensity (a.u.)
